Reference: patent US9574173
No constants are given. Whether binding was seen depends on the method and setting. Some results given as binding are weak or reduced against the parent protein; the word gives no strength. Blank lines part the entries; values can stand above or below the binder they belong to.

Columns and labels:
[1] = target: T1, nuclear factor of activated T-cells (NFAT1) (human), Q13469; assay: immunoprecipitation and Western blot, RA-treated hTS cells (FIG. 22c); settings: remark: other sources report otherwise
T1 chain: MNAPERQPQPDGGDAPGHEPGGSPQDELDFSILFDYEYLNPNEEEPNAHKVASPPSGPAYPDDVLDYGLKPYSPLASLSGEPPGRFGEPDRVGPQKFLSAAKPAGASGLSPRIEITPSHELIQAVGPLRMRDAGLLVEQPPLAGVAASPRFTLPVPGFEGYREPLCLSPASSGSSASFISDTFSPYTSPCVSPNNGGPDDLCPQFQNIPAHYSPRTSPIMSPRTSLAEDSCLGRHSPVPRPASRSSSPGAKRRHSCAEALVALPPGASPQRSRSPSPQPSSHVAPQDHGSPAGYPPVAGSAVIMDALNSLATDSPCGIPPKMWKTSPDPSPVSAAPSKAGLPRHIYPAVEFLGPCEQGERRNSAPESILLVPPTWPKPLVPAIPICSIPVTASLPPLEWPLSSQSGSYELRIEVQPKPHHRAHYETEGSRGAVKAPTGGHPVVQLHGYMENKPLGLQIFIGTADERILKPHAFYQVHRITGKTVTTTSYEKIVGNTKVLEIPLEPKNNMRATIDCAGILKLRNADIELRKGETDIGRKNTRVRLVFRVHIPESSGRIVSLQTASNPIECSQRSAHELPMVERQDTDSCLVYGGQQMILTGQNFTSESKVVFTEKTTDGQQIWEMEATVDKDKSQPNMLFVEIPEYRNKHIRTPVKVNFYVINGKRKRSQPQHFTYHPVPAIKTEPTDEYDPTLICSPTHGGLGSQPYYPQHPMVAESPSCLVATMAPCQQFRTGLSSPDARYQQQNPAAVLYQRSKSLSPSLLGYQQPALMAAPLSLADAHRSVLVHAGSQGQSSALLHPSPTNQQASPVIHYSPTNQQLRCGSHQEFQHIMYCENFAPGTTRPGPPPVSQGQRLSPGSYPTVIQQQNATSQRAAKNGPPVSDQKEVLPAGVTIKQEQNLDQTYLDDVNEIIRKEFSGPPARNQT

[2] = target: T2, myocyte enhancer factor 2A (MEF2A) (human), Q02078; assay: as above; settings: remark: other sources report otherwise
T2 chain: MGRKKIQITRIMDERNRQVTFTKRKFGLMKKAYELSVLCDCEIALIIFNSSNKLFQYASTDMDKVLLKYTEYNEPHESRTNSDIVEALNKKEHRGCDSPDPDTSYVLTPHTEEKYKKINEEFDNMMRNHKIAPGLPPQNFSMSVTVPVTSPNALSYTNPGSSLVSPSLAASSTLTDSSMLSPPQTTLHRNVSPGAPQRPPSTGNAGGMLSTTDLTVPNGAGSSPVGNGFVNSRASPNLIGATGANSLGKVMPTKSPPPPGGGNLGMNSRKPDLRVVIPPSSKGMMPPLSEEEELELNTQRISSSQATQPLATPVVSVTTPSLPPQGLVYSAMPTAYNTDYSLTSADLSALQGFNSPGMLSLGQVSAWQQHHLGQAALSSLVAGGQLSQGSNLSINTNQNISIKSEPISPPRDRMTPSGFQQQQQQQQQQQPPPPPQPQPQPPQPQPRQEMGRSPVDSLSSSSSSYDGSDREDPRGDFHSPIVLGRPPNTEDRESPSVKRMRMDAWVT

- binding [1]: binds
B1: myocyte enhancer factor 2A (MEF2A), Q02078 1-507 (protein, human, UniProt Q02078 1-507, looked up)
chain: T2 chain

- binding [2]: binds
B2: nuclear factor of activated T-cells (NFAT1), Q13469 1-925 (protein, human, UniProt Q13469 1-925, looked up)
chain: T1 chain
